Test results as given in the supplement of paper PMC10849652.
The other results are listed elsewhere or left out.

Amino acid sequences for entries named in this document (tags omitted). A change or cut given only in a name is not applied to a line headed by its entry.
UniProt Q9UQN3, whole entry, looked up: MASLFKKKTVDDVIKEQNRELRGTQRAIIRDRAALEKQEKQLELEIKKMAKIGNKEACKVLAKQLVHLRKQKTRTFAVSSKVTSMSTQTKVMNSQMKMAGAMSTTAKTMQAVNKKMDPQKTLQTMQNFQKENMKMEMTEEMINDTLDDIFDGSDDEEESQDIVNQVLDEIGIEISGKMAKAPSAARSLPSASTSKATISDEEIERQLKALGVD
UniProt Q9NX63: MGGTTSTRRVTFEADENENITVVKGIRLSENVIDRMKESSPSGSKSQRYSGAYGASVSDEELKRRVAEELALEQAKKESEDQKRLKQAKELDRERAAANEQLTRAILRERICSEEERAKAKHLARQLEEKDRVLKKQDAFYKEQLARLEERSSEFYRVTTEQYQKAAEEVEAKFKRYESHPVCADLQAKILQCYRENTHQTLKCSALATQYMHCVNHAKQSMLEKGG
UniProt Q8WUX2: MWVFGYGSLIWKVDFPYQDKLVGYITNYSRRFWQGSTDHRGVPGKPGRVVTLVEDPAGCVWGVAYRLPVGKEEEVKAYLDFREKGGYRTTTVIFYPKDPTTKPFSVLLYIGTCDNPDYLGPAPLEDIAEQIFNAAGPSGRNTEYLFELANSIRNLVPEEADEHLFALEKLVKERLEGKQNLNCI
UniProt P41208: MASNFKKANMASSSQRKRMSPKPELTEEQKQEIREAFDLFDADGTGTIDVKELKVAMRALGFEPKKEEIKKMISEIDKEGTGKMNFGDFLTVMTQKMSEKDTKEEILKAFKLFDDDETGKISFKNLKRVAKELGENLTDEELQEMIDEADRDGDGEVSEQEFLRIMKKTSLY
UniProt Q9BWS9: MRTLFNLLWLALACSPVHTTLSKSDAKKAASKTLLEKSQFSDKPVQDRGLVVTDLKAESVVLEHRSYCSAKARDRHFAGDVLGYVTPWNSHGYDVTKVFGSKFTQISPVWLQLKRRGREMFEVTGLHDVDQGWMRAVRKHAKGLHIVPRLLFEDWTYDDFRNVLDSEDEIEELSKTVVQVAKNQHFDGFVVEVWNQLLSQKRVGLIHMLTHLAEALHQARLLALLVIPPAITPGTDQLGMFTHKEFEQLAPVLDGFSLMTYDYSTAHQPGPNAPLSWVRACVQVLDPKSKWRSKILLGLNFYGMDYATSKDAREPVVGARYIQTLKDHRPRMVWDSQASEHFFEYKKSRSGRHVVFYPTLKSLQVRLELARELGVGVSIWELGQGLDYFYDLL
UniProt P50613: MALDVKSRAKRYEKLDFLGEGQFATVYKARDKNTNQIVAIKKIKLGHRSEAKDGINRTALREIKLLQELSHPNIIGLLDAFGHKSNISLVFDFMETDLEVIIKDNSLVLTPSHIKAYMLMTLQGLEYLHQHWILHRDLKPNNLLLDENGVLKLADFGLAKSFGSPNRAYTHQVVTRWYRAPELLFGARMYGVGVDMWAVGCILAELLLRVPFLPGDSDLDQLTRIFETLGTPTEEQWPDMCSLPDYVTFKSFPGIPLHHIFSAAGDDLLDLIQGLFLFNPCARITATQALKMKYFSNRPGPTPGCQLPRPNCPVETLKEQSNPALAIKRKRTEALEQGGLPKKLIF
UniProt P42773: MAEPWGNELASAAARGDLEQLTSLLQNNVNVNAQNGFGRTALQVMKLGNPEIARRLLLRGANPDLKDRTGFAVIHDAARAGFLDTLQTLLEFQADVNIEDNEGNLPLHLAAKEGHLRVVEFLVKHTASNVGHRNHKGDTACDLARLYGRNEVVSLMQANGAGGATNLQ
UniProt Q96SZ6: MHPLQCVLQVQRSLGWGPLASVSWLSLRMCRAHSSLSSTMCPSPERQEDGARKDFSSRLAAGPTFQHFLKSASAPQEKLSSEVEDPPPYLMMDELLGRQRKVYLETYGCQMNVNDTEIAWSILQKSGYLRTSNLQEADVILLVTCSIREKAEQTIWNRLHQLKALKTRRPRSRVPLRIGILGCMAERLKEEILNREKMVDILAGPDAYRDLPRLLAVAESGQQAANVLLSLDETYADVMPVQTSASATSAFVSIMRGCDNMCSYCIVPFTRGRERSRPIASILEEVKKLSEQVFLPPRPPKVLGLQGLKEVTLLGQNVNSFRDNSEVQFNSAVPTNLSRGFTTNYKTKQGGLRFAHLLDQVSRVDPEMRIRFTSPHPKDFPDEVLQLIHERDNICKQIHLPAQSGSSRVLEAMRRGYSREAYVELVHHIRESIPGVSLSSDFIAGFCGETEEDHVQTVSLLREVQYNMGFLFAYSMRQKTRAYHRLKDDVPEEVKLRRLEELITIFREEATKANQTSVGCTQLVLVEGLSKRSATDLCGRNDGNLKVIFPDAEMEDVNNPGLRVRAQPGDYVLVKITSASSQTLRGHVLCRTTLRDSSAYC
UniProt O00748: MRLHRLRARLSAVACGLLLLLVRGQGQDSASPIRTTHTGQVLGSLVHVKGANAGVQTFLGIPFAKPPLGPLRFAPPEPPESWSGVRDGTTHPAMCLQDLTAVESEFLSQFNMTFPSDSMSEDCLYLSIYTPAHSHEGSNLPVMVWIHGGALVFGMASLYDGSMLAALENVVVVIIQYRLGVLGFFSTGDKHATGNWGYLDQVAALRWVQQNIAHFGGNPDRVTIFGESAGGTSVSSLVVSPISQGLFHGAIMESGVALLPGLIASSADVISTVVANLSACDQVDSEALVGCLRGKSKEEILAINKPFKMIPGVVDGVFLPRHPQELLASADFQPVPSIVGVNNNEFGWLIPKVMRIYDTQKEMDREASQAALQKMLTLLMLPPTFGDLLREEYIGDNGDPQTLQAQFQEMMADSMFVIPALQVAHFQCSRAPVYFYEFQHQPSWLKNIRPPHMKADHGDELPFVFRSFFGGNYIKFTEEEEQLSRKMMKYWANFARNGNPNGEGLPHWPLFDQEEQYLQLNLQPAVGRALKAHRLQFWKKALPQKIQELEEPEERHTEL
UniProt Q9UFW8: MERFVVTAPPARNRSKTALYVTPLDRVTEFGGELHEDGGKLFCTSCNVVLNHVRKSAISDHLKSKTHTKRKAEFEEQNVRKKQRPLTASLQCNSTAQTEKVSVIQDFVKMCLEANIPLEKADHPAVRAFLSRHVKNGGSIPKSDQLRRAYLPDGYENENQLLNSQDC
UniProt O43633: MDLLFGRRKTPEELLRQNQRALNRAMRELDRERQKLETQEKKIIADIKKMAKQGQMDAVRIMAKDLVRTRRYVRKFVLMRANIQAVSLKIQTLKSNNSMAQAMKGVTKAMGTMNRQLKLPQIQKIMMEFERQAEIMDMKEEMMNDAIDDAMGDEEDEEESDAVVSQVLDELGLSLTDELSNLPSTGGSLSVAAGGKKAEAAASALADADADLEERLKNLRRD
UniProt Q9BUK0: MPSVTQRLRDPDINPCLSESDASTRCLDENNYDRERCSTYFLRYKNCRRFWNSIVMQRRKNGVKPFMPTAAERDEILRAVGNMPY
UniProt Q7LBR1: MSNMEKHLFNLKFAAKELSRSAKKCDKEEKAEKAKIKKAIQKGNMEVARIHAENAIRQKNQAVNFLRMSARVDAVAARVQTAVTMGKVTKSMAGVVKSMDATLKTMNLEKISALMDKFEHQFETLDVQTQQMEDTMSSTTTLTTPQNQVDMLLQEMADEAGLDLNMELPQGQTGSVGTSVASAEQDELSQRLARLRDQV
UniProt Q9C0F1: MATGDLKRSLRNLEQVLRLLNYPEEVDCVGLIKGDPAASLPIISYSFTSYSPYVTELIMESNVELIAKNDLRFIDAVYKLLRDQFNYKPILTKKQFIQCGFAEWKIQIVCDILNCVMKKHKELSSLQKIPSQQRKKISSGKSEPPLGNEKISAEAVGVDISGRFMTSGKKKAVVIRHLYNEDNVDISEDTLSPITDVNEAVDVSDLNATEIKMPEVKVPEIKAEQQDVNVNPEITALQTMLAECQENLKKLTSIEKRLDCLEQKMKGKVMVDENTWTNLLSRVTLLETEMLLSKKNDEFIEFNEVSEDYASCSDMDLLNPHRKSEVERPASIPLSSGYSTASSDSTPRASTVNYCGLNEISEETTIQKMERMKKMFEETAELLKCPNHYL
UniProt Q8N2Z9: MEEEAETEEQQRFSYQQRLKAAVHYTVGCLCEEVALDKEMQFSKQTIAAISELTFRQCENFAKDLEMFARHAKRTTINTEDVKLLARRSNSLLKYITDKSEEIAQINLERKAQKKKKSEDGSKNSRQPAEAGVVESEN
UniProt Q5VV42: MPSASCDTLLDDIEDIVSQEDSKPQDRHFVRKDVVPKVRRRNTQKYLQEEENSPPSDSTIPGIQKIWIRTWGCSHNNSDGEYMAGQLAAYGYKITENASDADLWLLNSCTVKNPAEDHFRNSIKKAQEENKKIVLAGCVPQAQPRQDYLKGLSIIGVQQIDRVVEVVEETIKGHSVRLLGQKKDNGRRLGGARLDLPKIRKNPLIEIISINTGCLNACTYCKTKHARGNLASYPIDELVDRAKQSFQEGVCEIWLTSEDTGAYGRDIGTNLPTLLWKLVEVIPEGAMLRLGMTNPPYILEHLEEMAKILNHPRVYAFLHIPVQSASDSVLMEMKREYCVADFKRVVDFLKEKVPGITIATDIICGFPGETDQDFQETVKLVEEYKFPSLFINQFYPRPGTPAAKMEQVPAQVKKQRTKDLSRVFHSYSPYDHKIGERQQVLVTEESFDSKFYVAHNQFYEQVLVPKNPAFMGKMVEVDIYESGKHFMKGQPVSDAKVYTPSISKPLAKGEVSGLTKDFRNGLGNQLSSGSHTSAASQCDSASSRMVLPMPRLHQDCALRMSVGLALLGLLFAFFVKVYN
UniProt O95674: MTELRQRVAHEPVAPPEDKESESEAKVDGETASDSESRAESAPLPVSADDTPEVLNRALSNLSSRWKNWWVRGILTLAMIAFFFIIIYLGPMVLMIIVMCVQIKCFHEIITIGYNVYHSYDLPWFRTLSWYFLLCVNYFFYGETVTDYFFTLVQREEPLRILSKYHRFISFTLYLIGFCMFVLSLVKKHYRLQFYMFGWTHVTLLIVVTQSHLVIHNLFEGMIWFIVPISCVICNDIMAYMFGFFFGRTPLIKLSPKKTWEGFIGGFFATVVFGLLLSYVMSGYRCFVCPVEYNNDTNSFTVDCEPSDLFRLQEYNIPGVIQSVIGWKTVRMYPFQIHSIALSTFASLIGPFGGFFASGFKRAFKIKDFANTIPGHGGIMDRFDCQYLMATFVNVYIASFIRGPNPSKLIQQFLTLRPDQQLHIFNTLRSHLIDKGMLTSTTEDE
UniProt O15182: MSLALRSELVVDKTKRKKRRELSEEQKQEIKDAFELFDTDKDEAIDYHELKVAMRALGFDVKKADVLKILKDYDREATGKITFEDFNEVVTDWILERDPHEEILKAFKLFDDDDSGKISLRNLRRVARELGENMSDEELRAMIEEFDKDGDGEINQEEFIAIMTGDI
UniProt Q92879: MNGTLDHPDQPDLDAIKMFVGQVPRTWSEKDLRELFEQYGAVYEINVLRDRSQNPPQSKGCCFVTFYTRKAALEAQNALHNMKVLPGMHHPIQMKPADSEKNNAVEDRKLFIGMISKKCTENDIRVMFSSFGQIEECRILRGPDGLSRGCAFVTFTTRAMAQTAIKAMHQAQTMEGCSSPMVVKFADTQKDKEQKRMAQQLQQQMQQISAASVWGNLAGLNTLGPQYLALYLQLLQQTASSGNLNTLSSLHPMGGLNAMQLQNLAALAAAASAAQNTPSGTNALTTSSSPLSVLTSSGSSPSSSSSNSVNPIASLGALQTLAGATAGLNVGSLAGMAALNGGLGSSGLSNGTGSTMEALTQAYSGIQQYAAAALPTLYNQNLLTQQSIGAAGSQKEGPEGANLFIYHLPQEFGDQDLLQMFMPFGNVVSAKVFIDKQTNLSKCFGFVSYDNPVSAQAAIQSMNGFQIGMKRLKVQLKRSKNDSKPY
UniProt O14757: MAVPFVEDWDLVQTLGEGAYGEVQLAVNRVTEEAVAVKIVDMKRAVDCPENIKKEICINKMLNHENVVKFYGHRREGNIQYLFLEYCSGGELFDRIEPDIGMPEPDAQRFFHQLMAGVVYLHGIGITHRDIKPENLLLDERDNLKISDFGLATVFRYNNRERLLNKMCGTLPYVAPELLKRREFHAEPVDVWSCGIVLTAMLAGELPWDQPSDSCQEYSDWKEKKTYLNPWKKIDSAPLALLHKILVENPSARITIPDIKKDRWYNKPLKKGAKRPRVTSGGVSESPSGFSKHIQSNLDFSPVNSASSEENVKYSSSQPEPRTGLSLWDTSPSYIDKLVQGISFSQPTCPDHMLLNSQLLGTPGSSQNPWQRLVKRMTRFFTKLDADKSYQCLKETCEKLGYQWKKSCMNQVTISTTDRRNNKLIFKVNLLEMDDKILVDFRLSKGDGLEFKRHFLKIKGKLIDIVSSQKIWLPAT
UniProt P46527, whole entry, looked up: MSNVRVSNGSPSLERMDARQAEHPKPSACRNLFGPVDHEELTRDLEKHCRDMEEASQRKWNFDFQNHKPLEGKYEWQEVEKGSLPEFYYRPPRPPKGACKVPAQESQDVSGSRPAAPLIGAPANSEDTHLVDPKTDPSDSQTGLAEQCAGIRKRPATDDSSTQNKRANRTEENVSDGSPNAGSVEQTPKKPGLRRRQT

Legend:
Assay in all cases: log2 fold change, soluble protein after heating vs DMSO (PISA); higher = thermal stabilisation; K562 cells, 10 uM, 30 min; active = over 0.2 and 3.5 SD of the protein, either way, in both replicates (recomputed)
[1] = compound: COC1=CC=C(C=C1)CN2C=CC3=C2C=C(C=C3)C(=O)NO
Method in brief: (§1)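 K562 cells (2×10^6 cells/mL) were treated with 10 μM compound for 30 min, and aliquots were heated for 3 min over 48°C-58°C. Pooled aliquots were extracted in PBS with 0.5% NP-40 at 4°C, and the supernatant after 21,000xg for 90 min was measured by TMTpro 16plex LC-MS/MS with channel sums equalised. Reported thermal stability, relative to control samples and from duplicates, is a log2 fold change.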

filanesib = compound: CON(C)C(=O)N1N=C(c2cc(F)ccc2F)S[C@@]1(CCCN)c1ccccc1 [filanesib]
Method in brief: as §1

zotarolimus = compound: CO[C@H]1C[C@@H]2CC[C@@H](C)[C@@](O)(O2)C(=O)C(=O)N2CCCC[C@H]2C(=O)O[C@H]([C@H](C)C[C@@H]2CC[C@H](n3cnnn3)[C@H](OC)C2)CC(=O)[C@H](C)/C=C(\C)[C@@H](O)[C@@H](OC)C(=O)[C@H](C)C[C@H](C)/C=C/C=C/C=C/1C [zotarolimus]
Method in brief: as §1

idasanutlin = compound: COc1cc(C(=O)O)ccc1NC(=O)[C@@H]1N[C@@H](CC(C)(C)C)[C@](C#N)(c2ccc(Cl)cc2F)[C@H]1c1cccc(Cl)c1F [idasanutlin]
Method in brief: as §1

alisertib = compound: COc1cc(Nc2ncc3c(n2)-c2ccc(Cl)cc2C(c2c(F)cccc2OC)=NC3)ccc1C(=O)O [alisertib]
Method in brief: as §1

[2] = compound: COc1cc2nc(-c3cc(F)ccc3O)nc(N[C@@H]3CNC[C@H]3C(C)(C)O)c2cc1OC
Method in brief: as §1

gefitinib = compound: COc1cc2ncnc(Nc3ccc(F)c(Cl)c3)c2cc1OCCCN1CCOCC1 [gefitinib]
Method in brief: as §1

[3] = compound: COc1cccc2cc(-c3nc([C@H]4CC[C@H](C(=O)O)CC4)n4ncnc(N)c34)[nH]c12
Method in brief: as §1

lapatinib = compound: CS(=O)(=O)CCNCc1ccc(-c2ccc3ncnc(Nc4ccc(OCc5cccc(F)c5)c(Cl)c4)c3c2)o1 [lapatinib]
Method in brief: as §1

pictilisib = compound: CS(=O)(=O)N1CCN(Cc2cc3nc(-c4cccc5[nH]ncc45)nc(N4CCOCC4)c3s2)CC1 [pictilisib]
Method in brief: as §1

Measured: log2 fold change

CHMP2B (UniProt Q9UQN3)
inactive: [1] -0.028 | filanesib -0.036 | zotarolimus -0.016 | idasanutlin -0.009 | alisertib -0.032 | [2] -0.054 | gefitinib -0.009 | [3] 0.055 | lapatinib 0.081 | pictilisib -0.039

CHCHD3 (UniProt Q9NX63)
inactive: [1] 0.021 | filanesib -0.095 | zotarolimus -0.019 | idasanutlin -0.046 | alisertib -0.051 | [2] -0.047 | gefitinib 0.009 | [3] 0.01 | lapatinib -0.084 | pictilisib 0.02

CHAC2 (UniProt Q8WUX2)
inactive: [1] -0.007 | filanesib -0.032 | zotarolimus 0.066 | idasanutlin -0.019 | alisertib 0.026 | [2] -0.061 | gefitinib -0.03 | [3] 0.06 | lapatinib 0.029 | pictilisib 0.077

CETN2 (UniProt P41208)
inactive: [1] -0.114 | filanesib 0.225 | zotarolimus -0.067 | idasanutlin 0.042 | alisertib -0.112 | [2] 0.141 | gefitinib 0.019 | [3] 0.028 | lapatinib -0.207 | pictilisib 0.028

CEP41 (UniProt Q9BYV8)
inactive: [1] -0.02 | filanesib -0.051

CHID1 (UniProt Q9BWS9)
inactive: [1] -0.017 | filanesib 0.054 | zotarolimus -0.001 | idasanutlin 0.039 | alisertib -0.179 | [2] -0.017 | gefitinib -0.017 | [3] -0.101 | lapatinib 0.119 | pictilisib -0.089

CHKA (UniProt P35790)
inactive: [1] -0.021 | filanesib 0.02 | zotarolimus -0.148 | idasanutlin -0.009 | alisertib -0.032 | [2] 0.065 | gefitinib -0.016 | [3] 0.004 | lapatinib -0.013 | pictilisib 0.041

CDK7 (UniProt P50613)
inactive: [1] 0.004 | filanesib 0.004 | zotarolimus -0.012 | idasanutlin 0.011 | alisertib -0.062 | [2] 0.059 | gefitinib -0.023 | [3] 0.06 | lapatinib 0.003 | pictilisib -0.024

CDKN2C (UniProt P42773)
inactive: [1] -0.1 | filanesib -0.006 | zotarolimus 0.04 | idasanutlin -0.084 | alisertib -0.045 | [2] -0.1 | gefitinib 0.021 | [3] 0.046 | lapatinib -0.083 | pictilisib 0.063

CDCA3 (UniProt Q99618)
inactive: [1] 0.035 | filanesib 0.031 | zotarolimus -0.025 | idasanutlin 0.039 | alisertib -0.062 | [2] 0.029 | gefitinib 0.005 | [3] 0.028 | lapatinib -0.02 | pictilisib -0.04

CDK5RAP1 (UniProt Q96SZ6)
inactive: filanesib -0.049 | zotarolimus 0.066 | idasanutlin -0.076 | alisertib -0.057 | [2] 0.131 | gefitinib -0.074 | [3] 0.055 | lapatinib -0.034 | pictilisib 0.075
active: [1] -0.395

CDK2 (UniProt P24941)
inactive: [1] -0.043 | filanesib -0.044 | zotarolimus 0.003 | idasanutlin -0.07 | alisertib -0.002 | [2] 0.024 | gefitinib -0.019 | [3] 0.043 | lapatinib -0.029 | pictilisib -0.032

CES2 isoform 4 (UniProt O00748)
inactive: [1] -0.099 | filanesib 0.055 | zotarolimus 0.078 | idasanutlin 0.053 | alisertib 0.023 | [2] -0.044 | gefitinib 0.03 | [3] -0.145 | lapatinib 0.161 | pictilisib 0.103

CGGBP1 (UniProt Q9UFW8)
inactive: [1] -0.041 | filanesib -0.02 | zotarolimus -0.009 | idasanutlin 0.007 | alisertib -0.076 | [2] 0.044 | gefitinib -0.016 | [3] -0.061 | lapatinib 0.081 | pictilisib -0.062

CHMP2A (UniProt O43633)
inactive: [1] 0.03 | filanesib -0.042 | zotarolimus 0.014 | idasanutlin -0.042 | alisertib -0.07 | [2] -0.057 | gefitinib -0.002 | [3] 0.04 | lapatinib -0.022 | pictilisib 0.001

CHCHD7 isoform 4 (UniProt Q9BUK0)
inactive: [1] -0.009 | filanesib 0.028 | zotarolimus -0.024 | idasanutlin 0.017 | alisertib 0.03 | [2] -0.009 | gefitinib -0.14 | [3] 0.043 | lapatinib -0.208 | pictilisib 0.102

CDIPT (UniProt O14735)
inactive: [1] -0.045 | filanesib 0.01 | zotarolimus 0.039 | idasanutlin -0.052 | alisertib -0.155 | [2] -0.129 | gefitinib 0.006 | [3] 0.068 | lapatinib -0.096 | pictilisib 0.077

CHMP1B (UniProt Q7LBR1)
inactive: [1] -0.034 | filanesib -0.047 | zotarolimus -0.005 | idasanutlin -0.086 | alisertib -0.034 | [2] 0.009 | gefitinib -0.005 | [3] 0.025 | lapatinib -0.033 | pictilisib 0.062

CEP44 (UniProt Q9C0F1)
inactive: [1] -0.055 | filanesib 0.057 | zotarolimus -0.117 | idasanutlin -0.106 | alisertib -0.028 | [2] 0.06 | gefitinib 0.088 | [3] 0.133 | lapatinib -0.099 | pictilisib 0.089

CHD4 isoform 2 (UniProt Q14839)
inactive: [1] 0.04 | filanesib 0.079 | zotarolimus 0.019 | idasanutlin 0.045 | alisertib 0 | [2] -0.099 | gefitinib 0.055 | [3] -0.097 | lapatinib 0.013 | pictilisib -0.028

CFDP1 (UniProt Q9UEE9)
inactive: [1] -0.036 | filanesib -0.039 | zotarolimus -0.051 | idasanutlin 0.015 | alisertib -0.034 | [2] 0.044 | gefitinib 0.019 | [3] 0.062 | lapatinib 0.007 | pictilisib 0.017

CENPS (UniProt Q8N2Z9)
inactive: [1] -0.064 | filanesib 0.007 | zotarolimus 0.041 | idasanutlin -0.025 | alisertib -0.378 | [2] 0.098 | gefitinib -0.016 | [3] 0.104 | lapatinib 0.031 | pictilisib -0.038

Copied from above (2 entries):
CEP44 (UniProt Q9C0F1)
inactive: [1] -0.055 | filanesib 0.057 | zotarolimus -0.117 | idasanutlin -0.106 | alisertib -0.028 | [2] 0.06 | gefitinib 0.088 | [3] 0.133 | lapatinib -0.099 | pictilisib 0.089

CHD4 isoform 2 (UniProt Q14839)
inactive: [1] 0.04 | filanesib 0.079 | zotarolimus 0.019 | idasanutlin 0.045 | alisertib 0 | [2] -0.099 | gefitinib 0.055 | [3] -0.097 | lapatinib 0.013 | pictilisib -0.028

More results:

CDKAL1 (UniProt Q5VV42)
inactive: [1] -0.147 | filanesib 0 | zotarolimus -0.048 | idasanutlin -0.084 | alisertib -0.01 | [2] 0.012 | gefitinib -0.016 | [3] -0.013 | lapatinib 0.004 | pictilisib 0.041

CDS2 (UniProt O95674)
inactive: [1] -0.085 | filanesib -0.023 | zotarolimus -0.095 | idasanutlin -0.009 | alisertib -0.1 | [2] -0.052 | gefitinib -0.04 | [3] 0.029 | lapatinib 0.037 | pictilisib -0.061

CETN3 (UniProt O15182)
inactive: [1] -0.211 | filanesib -0.026 | zotarolimus 0.041 | idasanutlin 0.068 | alisertib -0.058 | [2] 0.161 | gefitinib -0.001 | [3] 0.072 | lapatinib -0.175 | pictilisib 0.061

CHMP1A (UniProt Q9HD42)
inactive: [1] 0.026 | filanesib -0.043 | zotarolimus -0.013 | idasanutlin 0.033 | alisertib -0.053 | [2] 0.023 | gefitinib -0.013 | [3] 0.011 | lapatinib -0.017 | pictilisib -0.016

CDKN2AIP (UniProt Q9NXV6)
inactive: [1] 0.059 | filanesib 0.024 | zotarolimus -0.029 | idasanutlin -0.033 | alisertib -0.091 | [2] -0.007 | gefitinib 0.038 | [3] 0.054 | lapatinib 0.042 | pictilisib -0.025

CELF1 isoform 4 (UniProt Q92879)
inactive: [1] 0.122 | filanesib 0.002 | zotarolimus 0.059 | idasanutlin 0.095 | alisertib 0.048 | [2] -0.014 | gefitinib -0.018 | [3] 0.068 | lapatinib 0.008 | pictilisib -0.067

CHEK1 (UniProt O14757)
active: [2] -0.805
inactive: [1] 0.005 | filanesib -0.025 | zotarolimus -0.029 | idasanutlin -0.041 | alisertib -0.041 | gefitinib -0.06 | [3] 0.055 | lapatinib -0.007 | pictilisib 0.016

CDKN1B (UniProt P46527)
inactive: [1] 0.085 | filanesib -0.02 | zotarolimus -0.007 | idasanutlin -0.033 | alisertib 0.068 | [2] 0.104 | gefitinib 0.124 | [3] -0.076 | lapatinib -0.03 | pictilisib -0.02
